Measured values published in publication PMC7375649, “Varicella zoster virus encodes a viral decoy RHIM to inhibit cell death” (PLoS Pathogens, 2020).

How the values were obtained:
[1] = target: T1, YPet-ZBP1_(170-355) (human) (UniProt Q9H171); assay: sodium dodecyl sulfate agarose gel electrophoresis (SDS-AGE); as a8, but assembled samples incubated with 2% SDS at room temperature for 10 min before electrophoresis; both purified
T1 sequence: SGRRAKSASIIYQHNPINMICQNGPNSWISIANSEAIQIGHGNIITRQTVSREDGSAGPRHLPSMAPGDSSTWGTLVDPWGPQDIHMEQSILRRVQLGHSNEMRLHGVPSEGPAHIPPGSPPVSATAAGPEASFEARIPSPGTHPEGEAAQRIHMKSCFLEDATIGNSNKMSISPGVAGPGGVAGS

[2] = target: T1, YPet-ZBP1_(170-355) (human); assay: sodium dodecyl sulfate agarose gel electrophoresis (SDS-AGE); 5 uM per protein, alone or combined, dialysed from 8 M urea against assembly buffer overnight; incubated with water for 10 min before electrophoresis; monomer controls kept in 8 M urea; fluorescence imaging; both purified
[3] = target: T1, YPet-ZBP1_(170-355) (human); assay: single molecule fluorescence confocal spectroscopy (two-colour coincidence); proteins alone or one mCherry-tagged and one YPet-tagged protein mixed, diluted out of 8 M urea to 0.35-0.7 uM in 25 mM NaH2PO4, 150 mM NaCl, 0.5 mM DTT, pH 7.4; room temperature; 488 and 561 nm lasers; both …

Substance	binding [1]	binding [2]	binding [3]
Ub-ORF20_(1-114)mut (Varicella zoster virus (strain Dumas)) (domain or fragment)	no binding (only incubation with 2% SDS for 10 min)	binds	
ORF20_(1-114)mut-mCherry (Varicella zoster virus (strain Dumas)) (domain or fragment)			binds

These are yes or no findings as the source states them, for the method shown. For part of these data: Binding can be weak; no strength is given.
